In PubChem BioAssay AID1508600 (Functional Genomics Laboratory (NCATS/FGL), 2020):
Hit rate of the full screen: of about 53,000 sequences, about 3,700 (7%) were called active.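 Rule for the calls: active = gene knockdowns whose robust z-score for IL-1 alpha signal is at least 2 or at most -2, so actives lie on both sides; inactive = the rest.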 This is one part of the list.

assay: Components of the Cytosolic LPS Sensing Pathway: Gene Identification via Genome-wide siRNA Screen; details: RAW264.7 macrophages, IL-1a HTRF, actives lie on both sides, screened at 100 nM (by protocol), cells primed 5 h with Pam3CSK4 first;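 note: robust z of the log signal after scaling to non-targeting control siRNA wells of the plate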
Method in brief: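 RAW264.7; siRNA 100 nM final, RNAiMAX, 48h 37 degrees C; Pam3CSK4 5 h; LipidA + TransIT-TKO 24 h; IL-1a HTRF; CellTiter-Glo viability; robust z vs negative-control median.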

Q: For GGGAUAGUGUUCCUUAUCUTT against Neu1, which z-score is on record?
A: The z-score was active: -2.6.

Q: Which z-score does the source give for CCACAGUGAGCCAUCGAUATT against Slfn8 here?
A: Its z-score is inactive: -0.301.

Q: Which z-score does the source give for GGAAAGAAUCGAUUUAGACTT against Slc5a4a here?
A: Its z-score is inactive: 1.31.

Q: Which z-score does the source give for GCUCGCUAAAGUGAUUAAATT against Gm5533 here?
A: Its z-score is inactive: 0.867.

Q: For CCGAUCUGAUAUAGUAGAATT against Stk31, which z-score is on record?
A: The z-score was active: 2.18.

Q: Which z-score does the source give for GCUAUACCAAGUGGAUAGUTT against Prkaa1 here?
A: Its z-score is inactive: 1.39.

Q: With GGUCCAGCUCAUGAAACUUTT against Sik1 as the sequence, how does the z-score read?
A: The z-score was inactive: 0.147.

Q: For GGUUUUGCCUCCCAUAGUATT against Ssty1, which z-score is on record?
A: Its z-score is inactive: 0.112.

Q: With CCACAGUCCCAGUUUCAAGTT against Mcee as the sequence, how does the z-score read?
A: The z-score was inactive: -0.91.

Q: With GGAGAAAGUUGAACGUAUUTT against Cct2 as the sequence, how does the z-score read?
A: Its z-score is active: -2.58.

Q: Which z-score does the source give for GGAACUUUAUAAGGACUAUTT against Xlr4b here?
A: Its z-score is inactive: -0.621.

Q: Which z-score does the source give for GGUACUCUGUGGAUAUCCCTT against Rpl27 here?
A: The z-score was inactive: -0.224.

Q: Which z-score does the source give for GCGAAAGAAAGUUUUGCUGTT against Krit1 here?
A: The z-score was inactive: -0.0186.

Q: For GGAAUAGACUUGGAAUCUATT against Ccdc40, which z-score is on record?
A: The z-score was inactive: -0.486.

Q: Which z-score does the source give for “CCUACAGACGGAUACCAGATT against 9930012K11Rik” here?
A: Its z-score is inactive: 0.844.

Q: For GGUUUUUCGAGUUUUUUCUTT against Msx1, which z-score is on record?
A: The z-score was inactive: 1.06.

Q: For GCGUAACUACUACAUGAAUTT against Ano9, which z-score is on record?
A: The z-score was active: -2.33.

Q: Which z-score does the source give for CGCCAAUAUGGCCAUUGACTT against Ikzf2 here?
A: The z-score was inactive: -0.304.

Q: For GGUGUGGCUGAUGUAUAAATT against Syt7, which z-score is on record?
A: Its z-score is inactive: 0.378.

Q: With GGCGAGAGAUGUUCGACAATT against Ubr2 as the sequence, how does the z-score read?
A: The z-score was inactive: 0.747.

Q: For CCAUUGUCACUCCUAGUGUTT against Olfr1361, which z-score is on record?
A: Its z-score is inactive: 1.03.

Q: With GGCAGAAAAUAAUUACUUGTT against Sh3d19 as the sequence, how does the z-score read?
A: Its z-score is inactive: 1.28.

Q: For GGUACUUGAAGACUUGGAGTT against Rasal1, which z-score is on record?
A: The z-score was inactive: 3e-05.

Q: With GGAAAGAAUAUGAGAAUGCTT against Reck as the sequence, how does the z-score read?
A: Its z-score is inactive: -1.13.

Q: For GCACAGUAGUGAAAGUGAATT against Hspa14, which z-score is on record?
A: Its z-score is inactive: -0.0241.

Q: For GCAUAACUCAUGAUCUCCUTT against Oit3, which z-score is on record?
A: The z-score was inactive: 0.0243.

Q: Which z-score does the source give for GGACUUGUCUGGAUUUUGGTT against Mal2 here?
A: The z-score was inactive: 0.0138.

Q: For GGUCAGAGUGCCUCUUGAATT against Slc7a5, which z-score is on record?
A: Its z-score is inactive: -0.8.

Q: For CCCUGAAGAAGUUUGAUACTT against Gcfc2, which z-score is on record?
A: Its z-score is inactive: 0.856.

Q: With “GCUUACUAAUGCGGAUUACTT against 5330438D12Rik” as the sequence, how does the z-score read?
A: Its z-score is active: -2.41.

Q: Which z-score does the source give for GGACGGUCUCAACUUUUCCTT against Icam2 here?
A: The z-score was inactive: 0.513.

Q: With GUUAAGAUUUAGGCAUCAATT against Olfr805 as the sequence, how does the z-score read?
A: Its z-score is inactive: 0.125.

Q: Which z-score does the source give for GGAGAUGCCUAGUAUGAGCTT against Onecut2 here?
A: The z-score was inactive: 0.0984.

Q: With GGCCAAUUUCUUCACUUCUTT against Ints11 as the sequence, how does the z-score read?
A: Its z-score is inactive: -0.809.

Q: With GGAGAAGAAUUCAUUUCUCTT against Kat7 as the sequence, how does the z-score read?
A: Its z-score is inactive: -1.19.

Q: For GGUACAAUCGAAAGUACUUTT against Spns1, which z-score is on record?
A: The z-score was inactive: -0.501.

Q: With GGUCAAGACGGUCUACCGATT against Rab3d as the sequence, how does the z-score read?
A: Its z-score is inactive: -0.571.

Q: For CCAUGAAGUCCCAUGUUAUTT against Tpo, which z-score is on record?
A: The z-score was inactive: -0.0198.

Q: Which z-score does the source give for GGGAAAUCUCUGAUUACAUTT against Eif2ak3 here?
A: Its z-score is inactive: 0.382.

Q: Which z-score does the source give for GGCUCCUGGCUUUAUCCUGTT against Olfr107 here?
A: The z-score was inactive: 0.13.

Q: For GGCUUUCUUCUAGAAUGAGTT against Nptx1, which z-score is on record?
A: The z-score was inactive: -0.938.

Q: Which z-score does the source give for GGCCUCCAAUUUUCAAGUUTT against Pnliprp1 here?
A: The z-score was inactive: 0.0372.

Q: Which z-score does the source give for “GGGCUUAAAUCGGUUUGAATT against 2810006K23Rik” here?
A: The z-score was inactive: 0.263.

Q: With CCUAUUUGGUUCCUGAUGGTT against Gm1968 as the sequence, how does the z-score read?
A: Its z-score is inactive: 0.519.

Q: Which z-score does the source give for GGAUUAAACUGCAUAACAGTT against Ctsq here?
A: Its z-score is inactive: 0.361.

Q: With GGCCGACUUGAUCAAUAACTT against Hsp90aa1 as the sequence, how does the z-score read?
A: Its z-score is inactive: -0.164.

Q: With GCGCACAAGCCUUACUAAATT against Zfp560 as the sequence, how does the z-score read?
A: Its z-score is inactive: 0.0854.

Q: With GGGAUGUGCAAUUAUAUCUTT against Muc6 as the sequence, how does the z-score read?
A: Its z-score is inactive: 0.142.

Q: For CCUUAAGACCGGAUUUUUUTT against Cyp4f14, which z-score is on record?
A: The z-score was inactive: 0.64.

Q: Which z-score does the source give for GCUCCCACUUCACUUCUGUTT against Olfr965 here?
A: The z-score was inactive: 0.51.

Q: Which z-score does the source give for CGGCUCUUCAAUAGAGCCUTT against Olfr123 here?
A: Its z-score is inactive: -0.265.

Q: For GGGCAACAACAAUGUCUUATT against Islr, which z-score is on record?
A: The z-score was inactive: 0.674.

Q: With GGCUUUUGAAUACGAGUUUTT against Tmem63a as the sequence, how does the z-score read?
A: Its z-score is inactive: -0.483.
